Data reported in patent US8883965B2, “Compounds” (Ferring B.V., priority 2006, dated 2014).
pEC50: −log10 of the molar value. Part of at least one peptide drawing is inferred or uncertain, most often the ends. At least one compound was matched to its structure with a doubt left. Positions of bridges follow the written chain, without caps; N, C: chain ends. Non-standard residues stand in square brackets, D forms with d. Residues, ends and D or L forms follow the SMILES beside them. Ala(cPent) = N[C@@H](CC1CCCC1)C(=O)O; Cha = N[C@@H](CC1CCCCC1)C(=O)O; Orn = NCCC[C@H](N)C(=O)O; Dab = NCC[C@H](N)C(=O)O; Ac4c = NC1(C(=O)O)CCC1

By UniProt entry, the sequences of proteins in these tests, tags left out.
UniProt P37288, whole entry: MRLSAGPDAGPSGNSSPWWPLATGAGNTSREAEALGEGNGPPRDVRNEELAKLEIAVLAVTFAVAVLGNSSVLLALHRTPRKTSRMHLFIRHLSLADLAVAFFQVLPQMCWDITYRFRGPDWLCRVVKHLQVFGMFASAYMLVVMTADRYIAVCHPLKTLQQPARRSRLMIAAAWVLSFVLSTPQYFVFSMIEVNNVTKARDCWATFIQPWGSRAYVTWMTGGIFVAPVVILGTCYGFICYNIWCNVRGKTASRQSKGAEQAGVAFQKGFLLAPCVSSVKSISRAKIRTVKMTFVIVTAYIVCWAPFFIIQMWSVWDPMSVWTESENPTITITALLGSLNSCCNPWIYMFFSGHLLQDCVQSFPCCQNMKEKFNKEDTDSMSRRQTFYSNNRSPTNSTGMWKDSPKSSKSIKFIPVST

Target: T1, hV1a receptor (Homo sapiens, UniProt P37288)
T1 construct: expressed in transfected cells; host or cells: HEK-293
Assay: In vitro receptor assay: transcriptional reporter (luciferase) assay of agonist activity in HEK-293 cells transiently transfected with hV1a receptor
Format: cell-based
Details: hV1a receptor in HEK-293 cells, 5 hours exposure, geometric mean of at least three independent experiments, nanomol/L, read-out: EC50 (median effective concentration)
Protocol: Agonist activity of compounds on the hV1a receptor was determined in a transcriptional reporter assay by transiently transfecting a hV1a receptor expression DNA into HEK-293 cells in concert with a reporter DNA containing intracellular calcium responsive promoter elements regulating expression of firefly luciferase. See Boss, V., Talpade, D. J., Murphy, T. J. J. Biol. Chem. 1996, May 3; 271(18), 10429-10432 for further guidance on this assay.
The EC50 value given is the geometric mean expressed in nanomol/L (nM).

Row | SMILES | pEC50
1 | CC[C@H](C)[C@@H]1NC(=O)[C@H](CC2CCCC2)NC(=O)[C@@H](N)CSSC[C@@H](C(=O)N2CCC[C@H]2C(=O)N[C@@H](CCCN)C(=O)NCC(N)=O)NC(=O)[C@H](CC(N)=O)NC(=O)[C@H](CC(N)=O)NC1=O [compound 8] (H-C[Ala(cPent)]INNCP[Orn]G-NH2; disulfide 1-6) | 8.11
2 | CC[C@H](C)[C@@H]1NC(=O)C2(CCC2)NC(=O)[C@@H](N)CSSC[C@@H](C(=O)N2CCC[C@H]2C(=O)N[C@@H](CCN)C(=O)NCC(N)=O)NC(=O)[C@H](CC(N)=O)NC(=O)[C@H](CC(N)=O)NC1=O [compound 9] (H-C[Ac4c]INNCP[Dab]G-NH2; disulfide 1-6) | 7.83
3 | CC[C@H](C)[C@@H]1NC(=O)[C@H](CC2CCCCC2)NC(=O)[C@@H](N)CSSC[C@@H](C(=O)N2CCC[C@H]2C(=O)N[C@@H](CCN)C(=O)NCC(N)=O)NC(=O)[C@H](CC(N)=O)NC(=O)[C@H](CC(N)=O)NC1=O [compound 12] (H-C[Cha]INNCP[Dab]G-NH2; disulfide 1-6; N-terminus assumed) | 8.64
